Results are given in words; binding and its absence hold for the method and conditions named. Binding seen in cells or lysates may run through a third protein. Some results given as binding are weak or reduced against the parent protein; the word gives no strength.
T1: F-SMG7 wild type, transfected (UniProt Q92540)
T1 sequence: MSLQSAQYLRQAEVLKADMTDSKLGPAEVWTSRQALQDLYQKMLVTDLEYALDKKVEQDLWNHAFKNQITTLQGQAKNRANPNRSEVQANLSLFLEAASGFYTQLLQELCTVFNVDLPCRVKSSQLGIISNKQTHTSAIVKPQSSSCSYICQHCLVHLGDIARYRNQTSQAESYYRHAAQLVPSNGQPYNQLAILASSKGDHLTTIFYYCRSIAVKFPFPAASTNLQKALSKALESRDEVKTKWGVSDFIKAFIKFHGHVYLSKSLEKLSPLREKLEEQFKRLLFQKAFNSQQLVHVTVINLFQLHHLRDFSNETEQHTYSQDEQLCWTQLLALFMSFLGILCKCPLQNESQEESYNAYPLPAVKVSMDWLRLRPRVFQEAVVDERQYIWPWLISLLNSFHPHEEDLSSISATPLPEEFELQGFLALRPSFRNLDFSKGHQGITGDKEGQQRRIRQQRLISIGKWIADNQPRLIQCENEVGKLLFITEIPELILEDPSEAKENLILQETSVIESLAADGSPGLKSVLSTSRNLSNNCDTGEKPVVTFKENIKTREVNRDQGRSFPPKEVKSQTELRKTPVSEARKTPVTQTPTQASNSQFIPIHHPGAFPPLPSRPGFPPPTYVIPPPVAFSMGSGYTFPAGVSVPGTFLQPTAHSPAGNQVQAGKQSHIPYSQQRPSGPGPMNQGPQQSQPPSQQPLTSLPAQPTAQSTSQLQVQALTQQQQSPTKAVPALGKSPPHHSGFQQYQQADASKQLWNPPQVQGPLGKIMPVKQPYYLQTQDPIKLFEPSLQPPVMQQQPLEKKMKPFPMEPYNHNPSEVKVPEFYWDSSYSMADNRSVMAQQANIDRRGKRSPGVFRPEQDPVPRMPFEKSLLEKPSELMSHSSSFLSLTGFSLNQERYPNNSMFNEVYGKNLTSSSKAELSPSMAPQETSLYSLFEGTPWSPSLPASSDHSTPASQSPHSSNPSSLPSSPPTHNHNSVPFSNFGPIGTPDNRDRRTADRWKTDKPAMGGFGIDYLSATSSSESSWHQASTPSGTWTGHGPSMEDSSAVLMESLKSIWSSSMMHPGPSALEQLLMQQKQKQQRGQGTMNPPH

T2: F-SMG7-K66E, transfected (UniProt Q92540)
T2 sequence: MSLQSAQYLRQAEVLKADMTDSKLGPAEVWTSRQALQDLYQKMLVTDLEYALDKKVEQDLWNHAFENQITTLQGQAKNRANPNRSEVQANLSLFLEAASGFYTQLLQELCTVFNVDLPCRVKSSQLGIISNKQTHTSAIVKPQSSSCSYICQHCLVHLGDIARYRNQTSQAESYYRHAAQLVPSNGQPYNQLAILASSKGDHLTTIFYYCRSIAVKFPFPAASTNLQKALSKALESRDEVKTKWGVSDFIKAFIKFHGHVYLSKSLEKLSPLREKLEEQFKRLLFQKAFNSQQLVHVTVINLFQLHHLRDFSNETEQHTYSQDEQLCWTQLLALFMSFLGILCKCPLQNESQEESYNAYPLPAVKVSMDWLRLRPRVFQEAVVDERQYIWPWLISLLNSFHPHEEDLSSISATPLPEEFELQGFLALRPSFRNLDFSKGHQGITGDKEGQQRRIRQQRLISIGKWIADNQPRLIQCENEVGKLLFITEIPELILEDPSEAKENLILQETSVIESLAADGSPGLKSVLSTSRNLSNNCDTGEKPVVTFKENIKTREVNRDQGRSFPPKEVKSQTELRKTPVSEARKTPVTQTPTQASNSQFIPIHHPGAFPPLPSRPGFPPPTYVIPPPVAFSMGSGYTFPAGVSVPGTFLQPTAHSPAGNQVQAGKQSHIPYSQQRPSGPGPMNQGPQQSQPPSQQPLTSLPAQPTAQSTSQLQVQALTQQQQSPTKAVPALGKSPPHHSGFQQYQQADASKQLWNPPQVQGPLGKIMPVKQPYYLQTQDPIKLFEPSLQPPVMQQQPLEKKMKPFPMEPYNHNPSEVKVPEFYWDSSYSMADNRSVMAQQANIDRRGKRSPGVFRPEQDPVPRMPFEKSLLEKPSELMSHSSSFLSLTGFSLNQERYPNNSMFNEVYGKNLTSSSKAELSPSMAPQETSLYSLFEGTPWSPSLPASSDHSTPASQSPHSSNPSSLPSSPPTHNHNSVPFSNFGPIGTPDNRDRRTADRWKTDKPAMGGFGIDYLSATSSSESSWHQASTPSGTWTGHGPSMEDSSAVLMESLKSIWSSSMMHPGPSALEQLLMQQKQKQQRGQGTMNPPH


How the values were obtained:
[1] = target: T1, F-SMG7 wild type, transfected; test: co-IP; α-Flag (SMG7) immunoprecipitates from cells expressing F-SMG7 or F-SMG7-K66E, western blot; cells not given
F-SMG7-K66E, transfected = target: T2, F-SMG7-K66E, transfected; test: as above

binding [1] | binding (F-SMG7-K66E, transfected) | Binder
binds | binds | SMG5, endogenous (protein, UniProt Q9UPR3 1-1016) MSQGPPTGESSEPEAKVLHTKRLYRAVVEAVHRLDLILCNKTAYQEVFKPENISLRNKLRELCVKLMFLHPVDYGRKAEELLWRKVYYEVIQLIKTNKKHIHSRSTLECAYRTHLVAGIGFYQHLLLYIQSHYQLELQCCIDWTHVTDPLIGCKKPVSASGKEMDWAQMACHRCLVYLGDLSRYQNELAGVDTELLAERFYYQALSVAPQIGMPFNQLGTLAGSKYYNVEAMYCYLRCIQSEVSFEGAYGNLKRLYDKAAKMYHQLKKCETRKLSPGKKRCKDIKRLLVNFMYLQSLLQPKSSSVDSELTSLCQSVLEDFNLCLFYLPSSPNLSLASEDEEEYESGYAFLPDLLIFQMVIICLMCVHSLERAGSKQYSAAIAFTLALFSHLVNHVNIRLQAELEEGENPVPAFQSDGTDEPESKEPVEKEEEPDPEPPPVTPQVGEGRKSRKFSRLSCLRRRRHPPKVGDDSDLSEGFESDSSHDSARASEGSDSGSDKSLEGGGTAFDAETDSEMNSQESRSDLEDMEEEEGTRSPTLEPPRGRSEAPDSLNGPLGPSEASIASNLQAMSTQMFQTKRCFRLAPTFSNLLLQPTTNPHTSASHRPCVNGDVDKPSEPASEEGSESEGSESSGRSCRNERSIQEKLQVLMAEGLLPAVKVFLDWLRTNPDLIIVCAQSSQSLWNRLSVLLNLLPAAGELQESGLALCPEVQDLLEGCELPDLPSSLLLPEDMALRNLPPLRAAHRRFNFDTDRPLLSTLEESVVRICCIRSFGHFIARLQGSILQFNPEVGIFVSIAQSEQESLLQQAQAQFRMAQEEARRNRLMRDMAQLRLQLEVSQLEGSLQQPKAQSAMSPYLVPDTQALCHHLPVIRQLATSGRFIVIIPRTVIDGLDLLKKEHPGARDGIRYLEAEFKKGNRYIRCQKEVGKSFERHKLKRQDADAWTLYKILDSCKQLTLAQGAGEEDPSGMVTIITGLPLDNPSVLSGPMQAALQAAAHASVDIKNVLDFYKQWKEIG
binds | no binding | UPF1, endogenous (protein, UniProt Q92900 1-1129) MSVEAYGPSSQTLTFLDTEEAELLGADTQGSEFEFTDFTLPSQTQTPPGGPGGPGGGGAGGPGGAGAGAAAGQLDAQVGPEGILQNGAVDDSVAKTSQLLAELNFEEDEEDTYYTKDLPIHACSYCGIHDPACVVYCNTSKKWFCNGRGNTSGSHIVNHLVRAKCKEVTLHKDGPLGETVLECYNCGCRNVFLLGFIPAKADSVVVLLCRQPCASQSSLKDINWDSSQWQPLIQDRCFLSWLVKIPSEQEQLRARQITAQQINKLEELWKENPSATLEDLEKPGVDEEPQHVLLRYEDAYQYQNIFGPLVKLEADYDKKLKESQTQDNITVRWDLGLNKKRIAYFTLPKTDSGNEDLVIIWLRDMRLMQGDEICLRYKGDLAPLWKGIGHVIKVPDNYGDEIAIELRSSVGAPVEVTHNFQVDFVWKSTSFDRMQSALKTFAVDETSVSGYIYHKLLGHEVEDVIIKCQLPKRFTAQGLPDLNHSQVYAVKTVLQRPLSLIQGPPGTGKTVTSATIVYHLARQGNGPVLVCAPSNIAVDQLTEKIHQTGLKVVRLCAKSREAIDSPVSFLALHNQIRNMDSMPELQKLQQLKDETGELSSADEKRYRALKRTAERELLMNADVICCTCVGAGDPRLAKMQFRSILIDESTQATEPECMVPVVLGAKQLILVGDHCQLGPVVMCKKAAKAGLSQSLFERLVVLGIRPIRLQVQYRMHPALSAFPSNIFYEGSLQNGVTAADRVKKGFDFQWPQPDKPMFFYVTQGQEEIASSGTSYLNRTEAANVEKITTKLLKAGAKPDQIGIITPYEGQRSYLVQYMQFSGSLHTKLYQEVEIASVDAFQGREKDFIILSCVRANEHQGIGFLNDPRRLNVALTRARYGVIIVGNPKALSKQPLWNHLLNYYKEQKVLVEGPLNNLRESLMQFSKPRKLVNTINPGARFMTTAMYDAREAIIPGSVYDRSSQGRPSSMYFQTHDQIGMISAGPSHVAAMNIPIPFNLVMPPMPPPGYFGQANGPAAGRGTPKGKTGRGGRQKNRFGLPGPSQTNLPNSQASQDVASQPFSQGALTQGYISMSQPSQMSQPGLSQPELSQDSYLGDEFKSQIDVALSQDSTYQGERAYQHGGVTGLSQY

From publication PMC6739308
